Test results published in PMC4699217.

The chains behind the UniProt entries cited, without tags or fusion partners. Where a name states a change or a piece, a line headed by the entry shows the natural chain unless it says otherwise.
UniProt Q7Z6G8: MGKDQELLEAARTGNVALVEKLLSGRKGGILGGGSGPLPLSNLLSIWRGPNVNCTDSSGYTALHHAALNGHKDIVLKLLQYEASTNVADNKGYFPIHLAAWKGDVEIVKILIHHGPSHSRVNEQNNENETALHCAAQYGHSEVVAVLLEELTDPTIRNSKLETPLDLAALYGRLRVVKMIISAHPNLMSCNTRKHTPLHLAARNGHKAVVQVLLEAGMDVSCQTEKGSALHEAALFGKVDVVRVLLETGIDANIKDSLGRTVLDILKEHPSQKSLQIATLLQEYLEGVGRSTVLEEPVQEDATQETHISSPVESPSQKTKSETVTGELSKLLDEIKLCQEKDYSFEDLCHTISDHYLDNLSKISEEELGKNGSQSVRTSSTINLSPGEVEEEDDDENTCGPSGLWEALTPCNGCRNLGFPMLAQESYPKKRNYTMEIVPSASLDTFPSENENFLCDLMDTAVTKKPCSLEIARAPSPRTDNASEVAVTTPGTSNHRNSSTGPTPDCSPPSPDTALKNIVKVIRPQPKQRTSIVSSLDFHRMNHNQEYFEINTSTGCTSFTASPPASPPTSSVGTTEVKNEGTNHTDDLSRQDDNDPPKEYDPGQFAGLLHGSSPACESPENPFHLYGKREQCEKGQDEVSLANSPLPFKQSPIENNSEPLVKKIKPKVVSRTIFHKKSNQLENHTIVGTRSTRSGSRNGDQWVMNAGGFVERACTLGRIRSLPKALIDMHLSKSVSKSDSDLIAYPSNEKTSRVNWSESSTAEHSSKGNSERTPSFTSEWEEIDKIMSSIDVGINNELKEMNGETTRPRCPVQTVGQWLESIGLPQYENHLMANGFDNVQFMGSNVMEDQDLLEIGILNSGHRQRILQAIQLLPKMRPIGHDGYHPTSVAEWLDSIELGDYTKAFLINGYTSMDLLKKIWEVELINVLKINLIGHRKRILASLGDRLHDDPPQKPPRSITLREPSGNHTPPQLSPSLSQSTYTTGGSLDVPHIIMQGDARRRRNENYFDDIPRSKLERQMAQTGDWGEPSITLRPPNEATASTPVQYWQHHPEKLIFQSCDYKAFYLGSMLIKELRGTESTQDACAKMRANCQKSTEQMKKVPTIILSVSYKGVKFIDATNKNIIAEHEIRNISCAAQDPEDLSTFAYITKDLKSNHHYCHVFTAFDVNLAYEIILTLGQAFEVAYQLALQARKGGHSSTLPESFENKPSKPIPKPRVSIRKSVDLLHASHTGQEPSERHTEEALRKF
UniProt O00522: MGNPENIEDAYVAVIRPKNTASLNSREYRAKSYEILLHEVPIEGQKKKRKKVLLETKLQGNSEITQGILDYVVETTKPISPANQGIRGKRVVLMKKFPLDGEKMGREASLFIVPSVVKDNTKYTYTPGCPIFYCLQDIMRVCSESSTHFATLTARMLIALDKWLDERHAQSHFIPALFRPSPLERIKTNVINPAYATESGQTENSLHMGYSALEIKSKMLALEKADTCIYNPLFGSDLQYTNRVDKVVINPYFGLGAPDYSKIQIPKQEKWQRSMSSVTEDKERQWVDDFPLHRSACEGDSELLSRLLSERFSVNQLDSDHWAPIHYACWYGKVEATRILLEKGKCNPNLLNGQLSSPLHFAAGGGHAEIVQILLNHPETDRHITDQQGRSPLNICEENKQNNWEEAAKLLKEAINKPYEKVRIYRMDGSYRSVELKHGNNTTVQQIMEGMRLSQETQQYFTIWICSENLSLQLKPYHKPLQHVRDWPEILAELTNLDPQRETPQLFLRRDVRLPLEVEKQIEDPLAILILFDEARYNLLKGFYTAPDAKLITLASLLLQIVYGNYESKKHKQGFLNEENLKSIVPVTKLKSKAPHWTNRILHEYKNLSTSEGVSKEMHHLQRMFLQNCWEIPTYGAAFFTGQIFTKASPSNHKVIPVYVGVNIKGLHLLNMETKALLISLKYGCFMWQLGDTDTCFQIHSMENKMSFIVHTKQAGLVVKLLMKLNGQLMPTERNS

Target: Protein A-tagged ANKS1B (human) (UniProt Q7Z6G8)
Assay: LUMIER (co-precipitation with luciferase read-out); HEK293 cells transiently transfected; lysed two days after transfection; Protein A-tagged protein purified with immunoglobulin-coated magnetic beads; luciferase-tagged protein detected by luminescence; LUMIER intensity ratio of 3 or above counts as positive

- binding: binds
Substance: KRIT1 fused to Renilla luciferase (from UniProt O00522 1-736)

These are yes or no findings as the source states them, for the method shown. In cells and extracts the contact can be indirect. Binding can be weak; no strength is given.
